This note sets out measurements from paper PMC11827640.

The chains behind the UniProt entries cited, without tags or fusion partners.
UniProt P21333: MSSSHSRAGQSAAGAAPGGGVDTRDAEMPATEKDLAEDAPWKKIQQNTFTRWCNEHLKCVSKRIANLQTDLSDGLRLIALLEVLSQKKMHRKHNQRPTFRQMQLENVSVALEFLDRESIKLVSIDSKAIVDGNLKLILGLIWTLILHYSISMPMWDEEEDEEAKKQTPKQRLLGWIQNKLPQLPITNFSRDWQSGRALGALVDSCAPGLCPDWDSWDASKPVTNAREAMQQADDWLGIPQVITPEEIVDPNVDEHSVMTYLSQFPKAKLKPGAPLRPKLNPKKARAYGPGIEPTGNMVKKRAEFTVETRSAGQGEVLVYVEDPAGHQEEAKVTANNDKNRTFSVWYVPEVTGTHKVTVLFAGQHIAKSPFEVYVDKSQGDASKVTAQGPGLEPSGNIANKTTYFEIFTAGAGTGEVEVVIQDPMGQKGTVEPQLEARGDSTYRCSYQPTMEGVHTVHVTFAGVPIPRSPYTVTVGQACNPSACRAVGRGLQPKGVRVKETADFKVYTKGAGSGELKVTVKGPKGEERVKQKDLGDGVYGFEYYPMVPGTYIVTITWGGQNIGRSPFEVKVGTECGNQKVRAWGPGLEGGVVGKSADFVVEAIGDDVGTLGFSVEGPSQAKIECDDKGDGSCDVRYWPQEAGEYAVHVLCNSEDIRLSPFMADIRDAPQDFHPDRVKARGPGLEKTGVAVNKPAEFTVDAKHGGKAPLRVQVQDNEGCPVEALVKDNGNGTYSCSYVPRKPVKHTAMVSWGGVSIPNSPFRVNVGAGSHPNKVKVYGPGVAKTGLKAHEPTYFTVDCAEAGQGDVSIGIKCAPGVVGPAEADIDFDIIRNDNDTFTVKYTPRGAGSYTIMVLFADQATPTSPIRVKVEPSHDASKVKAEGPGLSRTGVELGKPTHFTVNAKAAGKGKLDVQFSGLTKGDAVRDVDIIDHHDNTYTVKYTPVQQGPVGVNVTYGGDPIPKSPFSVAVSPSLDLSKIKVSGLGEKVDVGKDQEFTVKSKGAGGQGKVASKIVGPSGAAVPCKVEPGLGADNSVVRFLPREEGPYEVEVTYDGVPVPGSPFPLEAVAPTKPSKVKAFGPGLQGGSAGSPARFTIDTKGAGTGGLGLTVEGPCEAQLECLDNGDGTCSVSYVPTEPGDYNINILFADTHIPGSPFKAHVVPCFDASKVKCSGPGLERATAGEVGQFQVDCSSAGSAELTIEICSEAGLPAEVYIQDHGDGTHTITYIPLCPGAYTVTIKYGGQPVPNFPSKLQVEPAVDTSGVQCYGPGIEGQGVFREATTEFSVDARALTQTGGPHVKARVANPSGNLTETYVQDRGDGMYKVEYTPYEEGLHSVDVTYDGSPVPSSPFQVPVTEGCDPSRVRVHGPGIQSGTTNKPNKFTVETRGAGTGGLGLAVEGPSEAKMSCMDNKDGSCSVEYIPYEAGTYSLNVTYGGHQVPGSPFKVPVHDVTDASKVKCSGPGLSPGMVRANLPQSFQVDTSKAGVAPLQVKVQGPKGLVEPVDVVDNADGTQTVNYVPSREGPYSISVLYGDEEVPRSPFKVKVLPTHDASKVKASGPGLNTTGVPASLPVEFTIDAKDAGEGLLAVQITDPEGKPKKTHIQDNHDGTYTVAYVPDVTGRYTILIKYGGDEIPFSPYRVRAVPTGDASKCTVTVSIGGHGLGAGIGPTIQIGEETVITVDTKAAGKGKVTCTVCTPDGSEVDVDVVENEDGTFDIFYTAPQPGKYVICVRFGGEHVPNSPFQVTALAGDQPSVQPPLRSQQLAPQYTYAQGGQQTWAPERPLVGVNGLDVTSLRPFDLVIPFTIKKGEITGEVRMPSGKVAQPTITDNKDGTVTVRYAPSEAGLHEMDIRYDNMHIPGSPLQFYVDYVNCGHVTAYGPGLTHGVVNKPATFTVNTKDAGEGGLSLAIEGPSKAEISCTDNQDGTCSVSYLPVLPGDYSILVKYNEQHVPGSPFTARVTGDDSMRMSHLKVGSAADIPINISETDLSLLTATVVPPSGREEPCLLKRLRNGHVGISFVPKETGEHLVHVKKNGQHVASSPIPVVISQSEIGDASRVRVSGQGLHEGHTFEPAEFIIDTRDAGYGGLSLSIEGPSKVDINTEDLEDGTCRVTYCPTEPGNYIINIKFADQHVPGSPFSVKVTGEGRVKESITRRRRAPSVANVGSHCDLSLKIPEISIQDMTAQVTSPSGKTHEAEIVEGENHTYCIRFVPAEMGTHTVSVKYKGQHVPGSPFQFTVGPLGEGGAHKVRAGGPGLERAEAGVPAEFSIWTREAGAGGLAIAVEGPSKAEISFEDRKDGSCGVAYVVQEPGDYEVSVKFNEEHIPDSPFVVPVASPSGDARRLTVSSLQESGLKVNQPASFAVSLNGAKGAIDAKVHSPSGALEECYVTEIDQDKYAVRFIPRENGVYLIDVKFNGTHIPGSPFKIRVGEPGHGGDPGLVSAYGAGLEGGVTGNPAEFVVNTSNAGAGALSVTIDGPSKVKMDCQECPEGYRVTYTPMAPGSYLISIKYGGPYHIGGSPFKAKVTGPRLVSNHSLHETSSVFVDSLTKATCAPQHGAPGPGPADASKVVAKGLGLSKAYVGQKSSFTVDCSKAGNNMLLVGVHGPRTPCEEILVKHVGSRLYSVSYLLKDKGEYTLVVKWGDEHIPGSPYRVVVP
UniProt O43707: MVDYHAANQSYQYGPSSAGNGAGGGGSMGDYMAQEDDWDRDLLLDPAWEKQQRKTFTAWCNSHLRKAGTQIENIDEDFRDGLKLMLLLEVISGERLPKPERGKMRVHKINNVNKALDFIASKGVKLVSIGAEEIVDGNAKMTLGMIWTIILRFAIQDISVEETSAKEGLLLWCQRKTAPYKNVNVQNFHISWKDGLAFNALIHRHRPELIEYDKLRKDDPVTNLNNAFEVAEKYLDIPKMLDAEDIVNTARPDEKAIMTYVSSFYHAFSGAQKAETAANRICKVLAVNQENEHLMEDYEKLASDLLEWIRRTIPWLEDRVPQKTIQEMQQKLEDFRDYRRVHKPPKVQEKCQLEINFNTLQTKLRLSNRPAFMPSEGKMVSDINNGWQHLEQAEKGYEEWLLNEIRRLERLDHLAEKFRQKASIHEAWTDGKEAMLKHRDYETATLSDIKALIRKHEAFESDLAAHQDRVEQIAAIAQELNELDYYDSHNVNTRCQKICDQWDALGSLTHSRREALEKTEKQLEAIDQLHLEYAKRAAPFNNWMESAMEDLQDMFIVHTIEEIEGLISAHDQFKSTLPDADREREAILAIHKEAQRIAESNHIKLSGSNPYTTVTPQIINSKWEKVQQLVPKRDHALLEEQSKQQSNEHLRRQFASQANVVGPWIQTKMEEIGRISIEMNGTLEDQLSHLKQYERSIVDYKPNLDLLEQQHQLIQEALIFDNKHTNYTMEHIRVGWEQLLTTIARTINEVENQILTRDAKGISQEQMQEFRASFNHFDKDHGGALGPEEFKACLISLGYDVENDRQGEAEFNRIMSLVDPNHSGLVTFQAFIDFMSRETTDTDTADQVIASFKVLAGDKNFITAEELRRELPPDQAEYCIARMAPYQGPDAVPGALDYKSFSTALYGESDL

The target in the assay is T1, RASSF1A (human (endogenous in HeLa)) (UniProt Q9NS23).
T1 sequence: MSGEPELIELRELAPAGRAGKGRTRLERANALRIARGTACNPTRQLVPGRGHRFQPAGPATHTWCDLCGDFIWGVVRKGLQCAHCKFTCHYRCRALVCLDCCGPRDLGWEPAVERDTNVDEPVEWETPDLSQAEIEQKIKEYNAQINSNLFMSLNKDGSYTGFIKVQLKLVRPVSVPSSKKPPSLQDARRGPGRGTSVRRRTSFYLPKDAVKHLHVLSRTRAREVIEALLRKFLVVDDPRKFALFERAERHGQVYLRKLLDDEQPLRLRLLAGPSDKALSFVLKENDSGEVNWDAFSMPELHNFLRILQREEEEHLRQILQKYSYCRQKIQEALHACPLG
The experiment in a line: affinity purification with mass spectrometry; endogenous RASSF1A immunoprecipitated (10 μg anti-RASSF1A Atlas HPA040735 or rIgG, protein A Dynabeads, 10 mg lysate in 1% NP-40 buffer, 3 hours, 4°C) from control versus sorbitol-exposed HeLa cells; on-bead digest, LC-MS/MS.

These are yes or no findings as the source states them, for the method shown. Binding seen in cells or lysates may run through a third protein. Here binding means that the protein was enriched with, or labelled near, the bait; the list need not be complete.

Regarding Filamin-A (from UniProt P21333 1-2647), the binding result is on record as “binds”.

Turning to “α-actinin 4 (ACTN4) (from UniProt O43707 1-911)”, the binding result is reported as “binds”.
